Reference: PubChem BioAssay AID2685 (National Center for Advancing Translational Sciences (NCATS), 2010)
Hit rate of the full screen: of about 320,000 compounds, about 2,100 (0.66%) were called active. Inconclusive results, whose numbers are uncertain, are shown with a selection of clear calls. The call rests on the fitted dose curve; in most records, active means well fitted inhibition curve with a large enough effect in the signal ratio, with a control signal flat (not every such curve was filed as active); inconclusive means small, poorly fitted or top-dose-only effect, or effect the other way, or a change in a side signal; inactive means flat fitted curve, though single readings scatter; the % refers to the signal ratio. Where the call is inconclusive, the potency comes from a doubtful curve fit.

Assay: qHTS Assay for Lipid Storage Modulators in Drosophila S3 Cells
Conditions: BODIPY lipid droplet fluorescence, 18-24 h, cells fed with added oleic acid; lipid storage change, negative = inhibition: at 46.1 µM (top of the series) unless noted
Procedure, shortened: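 Drosophila S3 cells loaded with oleic acid (400 uM, as added) and compounds at several concentrations; lipid droplets imaged by 488-nm laser-scanning cytometry, 500–530 nm intensity and object ratio to cell channel. Percent activity normalized to 20 uM Triacsin C.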
On the % scale 0 is the no-effect control and ±100 the full control effect; potency means the concentration at half of the fitted maximal effect.

Potency, inconclusive:
O=C(Cc1n[nH]c(=O)c2ccccc12)Nc1cccc(S(=O)(=O)N2CCCC2)c1 11.6 µM [activator, partial curve, poor fit]
COc1ccc(NC(=O)c2cncn2-c2ccccc2)cc1 0.184 µM [falling, full curve]
COc1cc(S(=O)(=O)Nc2cccc(C)c2)ccc1NC(=O)c1ccncc1 20.6 µM [falling, single point]
Cc1nnc(SCc2ccccn2)n(N)c1=O 6.51 µM [falling, single point]
O=C(c1cc2ncc(Br)cn2n1)N1CCN(C(=O)c2ccco2)CC1 1.03 µM [rising, full curve]
N#C/C(=C\c1ccc(N2CCOCC2)o1)C(=O)NCCc1ccccc1 16.4 µM [falling, partial curve, poor fit]
COc1cc2c(cc1OC)CN(C(=O)COc1ccc(C#N)cc1)CC2 6.51 µM [activator, partial curve, poor fit]
CCOC(=O)C1=C(C)N=C2SC(C)C(=O)N2C1c1ccc(C(=O)OC)cc1 (stereo not given) 18.4 µM [falling, partial curve, poor fit]
NNc1nc2ccc(Cl)cc2s1 20.6 µM [falling, single point]
COc1cccc(NC(=O)CSc2nc3c(sc4ccccc43)c(=O)n2CCCN2CCCC2)c1 29.1 µM [falling, partial curve]
CC(Oc1ccccc1F)c1nnc(SCC(=O)NCc2ccc3c(c2)OCO3)o1 (stereo not given) 2.59 µM [activator, partial curve]
CN(Cc1nc(-c2cccnc2)no1)S(=O)(=O)c1ccc2ccccc2c1 0.82 µM [activator, partial curve]
COc1cc(OC)cc(-c2c(-c3cccs3)c3cc(-c4ccn[nH]4)ccc3n2C)c1 0.146 µM [activator, full curve]
CCn1c(O)c(/C=N/N=C/c2ccccc2)c2ccc(C3=NNC(=O)CC3)cc21 1.03 µM [rising, partial curve]
CC(/C=N/Nc1nc(C)cc(C)n1)=C\c1ccc(C(C)C)cc1 6.51 µM [rising, partial curve]
Cc1ccc(C(=O)NC(=S)N2CCN(C)CC2)cc1Br 9.2 µM [activator, partial curve]
O=C(N1CCOCC1)N1CCN(Cc2ccccc2)CC1 1.16 µM [falling, full curve]
CS(=O)(=O)N1CCN(C(=O)c2ccc3c(c2)OCCO3)CC1 29.1 µM [activator, single point]
O=C(CCCNC(=O)/C(=C/c1ccccc1F)NC(=O)c1ccccc1)OCc1ccccc1 29.1 µM [falling, single point]
CCc1ccc(Nc2n[n+](-c3ccccc3)c(-c3ccc(OC)c(Br)c3)s2)cc1 6.51 µM [activator, single point]
CCC(C(=O)OCC(=O)Nc1c(Cl)cccc1Cl)c1ccccc1 (stereo not given) 0.103 µM [activator, partial curve, poor fit]
CCOC(=O)CC1(NC(=O)C2CCC(=O)N(Cc3ccccc3OC)C2)CCCCC1 (stereo not given) 6.51 µM [falling, single point]
CCn1c(SCC(=O)Nc2cc(C)on2)nc2sc(C)c(C)c2c1=O 1.16 µM [activator, partial curve]
Cc1ccc(S(=O)(=O)c2c(N)n(CC3CCOC3)c3nc4ccccc4nc23)cc1 (stereo not given) 0.291 µM [activator, partial curve, poor fit]

Potency, active:
CCOc1ccc2nc(N3C(=O)/C(=C/c4ccccc4)NC3=S)sc2c1 9.2 µM

Lipid storage change, negative = inhibition, inactive:
CCO[C@@H]1OC(C(=O)N2CCN(Cc3ccc4c(c3)OCO4)CC2)=C[C@H](c2ccc3c(c2)OCO3)[C@H]1CCCO -19%
CC(=O)NC(=S)Nc1ccc(NC(=S)NC(=O)/C=C/c2ccco2)cc1 8.43%
Cc1nn(CC(=O)OCC(=O)Nc2c(C(C)C)cccc2C(C)C)c(C)c1[N+](=O)[O-] -9.28%
CCOC(=O)C(NC(=O)CC)(Nc1ccc(S(N)(=O)=O)cc1)C(F)(F)F (stereo not given) -9.17%

Lipid storage change, negative = inhibition, inconclusive:
Cc1ccc(-n2nnnc2CNC(=O)C2CC(=O)N(c3ccc(F)cc3)C2)cc1C (stereo not given) 32.1%
COc1cc(C(=O)OCC(=O)NCc2ccco2)cc(OC)c1OC 17.8%
CC(C)n1ncc2c(C(=O)NCCc3ccc(S(N)(=O)=O)cc3)cc(C3CC3)nc21
Cc1ccc2cc(CN(c3cccc(C)c3C)S(=O)(=O)c3ccccc3)c(=O)[nH]c2c1 36.3%
CCCNC(=O)C1CCN(c2nc(C)cc(C)n2)CC1 -57.7%
O=C(CN1C(=O)c2ccccc2C1=O)Nc1cccc(O)c1 -15.8%
Cc1ccccc1CN1CCN(C(=O)c2ccc(F)cc2)CC1 -69.5%
CCOc1ccc(NCC(=O)N/N=C/C=C/c2ccccc2)cc1 28.2%
CCC1Oc2ccccc2N(CC(=O)NCCc2ccc(OC)c(OC)c2)C1=O (stereo not given) -34.8%
CC(=O)C1C(c2cccc(F)c2)c2c(n[nH]c2C)CC1(C)O (stereo not given) 1.58%
CN(Cc1cnn(-c2ccccc2)c1)C(=O)C1CCC(=O)N(C2CC2)C1 (stereo not given) -10.5%
Cc1nn(Cc2ccccc2)c(N)c1C#N -25.9%
CN(C)CCNC(=O)/C(=C/c1ccc(-c2cccc([N+](=O)[O-])c2)o1)NC(=O)c1ccccc1 21.6%
O=C(CN1C(=O)c2ccccc2S1(=O)=O)N1CCc2ccccc2C1 8.51%
Cc1oc2c(C)c3oc(=O)c(CC(=O)N[C@@H](CCCNC(N)=O)C(=O)O)c(C)c3cc2c1C 18.1%
O=S(=O)(Nc1cccc(-c2nc3cccnc3s2)c1)c1cccs1 14.2%
C/C(Cn1nnc([N+](=O)[O-])n1)=N\NC(=O)c1ccc(Cl)c(Cl)c1 9.44%
Cc1cc(C)c(C#N)c(SCC(=O)N2CCCCC2)n1 66.5%
Cc1ccc2nc(NC(=O)c3ccc4c(c3)OCO4)sc2c1 38.9%
CCCn1c(SCC(=O)c2ccc3c(c2)NC(=O)CO3)nc2ccccc21 20.4%
COc1cc(/C=N\NC(=O)c2ccc(-c3ccccc3)cc2)cc(OC)c1OC(C)=O -42.1%
COC(=O)c1ccc(NC(=O)CSc2ccc(-c3ccccn3)nn2)cc1 14.6%
Cc1nn(C)c(C)c1/C=N/O 24.9%
Cc1ccccc1Nc1nc(N)nc(COC(=O)CCS(=O)(=O)c2ccccc2)n1 13.9%
COc1ccc(NC2CC(=O)N(c3ccc(C(=O)O)cc3)C2=O)cc1 (stereo not given) 38.4%
CCOC(=O)C1CCN(C(=O)c2cccc(S(=O)(=O)N(C)C3CCCCC3)c2)CC1 18.7%
CCCCNC(=O)CN1C(=O)NC(CCc2ccccc2)C1=O (stereo not given) 20.5%
COc1ccccc1CCC(=O)N(C)CC(=O)Nc1ccc(F)cc1 41.6%
Cc1cccc(OCC(=O)N(Cc2ccc(F)cc2)C2CCS(=O)(=O)C2)c1C (stereo not given) -43.7%
CCOc1ccc(CCNC(=O)COC(=O)Cn2cnc3ccccc3c2=O)cc1OCC 21.4%
O=S(=O)(O)c1nc2ccccc2n1Cc1cccc2ccccc12 2.28%
COc1ccc(-c2cc(C)no2)cc1S(=O)(=O)N1CCN(C(=O)c2ccco2)CC1 26.7%
COc1ccc(NC(=O)CN(c2ccccc2)S(=O)(=O)c2ccccc2)c(OC)c1 -25.2%
S=C(NCc1ccccc1)N1CCN(C2CCCCC2)CC1 8.22%
Cc1cccc(N2CN(Cc3cccnc3)CNC2=S)c1C 9.46%
Cc1ccccc1Cn1c2ccccc2c2cnn(CC(=O)N3CCN(c4ccccc4)CC3)c(=O)c21 34%
COc1cccc(S(=O)(=O)NCc2ccc(C(=O)N3CCN(Cc4ccccc4)CC3)cc2)c1 -73.7%
CC(OC(=O)c1ccccc1C(=O)N(C)c1ccccc1)C(=O)Nc1ccc(C(N)=O)cc1 (stereo not given) -0.752%
COC(=O)c1sc(S(=O)(=O)Nc2ccc(C)c(C)c2)c(C(=O)OC)c1C -18.7%
CCOC(=O)c1c(C)[nH]c(C)c1C(=O)CSc1nnc(-c2ccco2)n1Cc1ccccc1 -106%
CCc1nc(SCC(=O)Nc2cc(C)ccc2OC)c2c(C)c(C)sc2n1 -60.5%
O=C(O)C1C(c2ccccc2)C(C(=O)Oc2ccc(O)cc2)C1c1ccccc1 (stereo not given) -93.2%
CC1CN(c2oc(-c3ccco3)nc2S(=O)(=O)c2ccccc2)CC(C)O1 (stereo not given) -15.7%
CN(CCCNC(=O)CCc1cn(C)c2ccccc12)C1CCCCC1 2.92%
CCCc1c(OCCCOc2ccc(OCC(=O)O)cc2)ccc(C(C)=O)c1O 4.08%
O=C(CS(=O)CC(=O)NC12CC3CC(CC(C3)C1)C2)Nc1ccc(F)cc1 (stereo not given) 1.16%

No new results follow: entries from further up.
Lipid storage change, negative = inhibition, inconclusive:
CCCNC(=O)C1CCN(c2nc(C)cc(C)n2)CC1 -57.7%
O=C(CN1C(=O)c2ccccc2C1=O)Nc1cccc(O)c1 -15.8%
Cc1ccccc1CN1CCN(C(=O)c2ccc(F)cc2)CC1 -69.5%
